Data as given in the supplement of paper PMC10849652.
The other results are listed elsewhere or left out.

Protein sequences, listed by entry. Tags and fused reporters are not part of them. Lines headed by an entry give the natural chain unless they say otherwise; changes in a name come on top.
UniProt Q9Y3A3: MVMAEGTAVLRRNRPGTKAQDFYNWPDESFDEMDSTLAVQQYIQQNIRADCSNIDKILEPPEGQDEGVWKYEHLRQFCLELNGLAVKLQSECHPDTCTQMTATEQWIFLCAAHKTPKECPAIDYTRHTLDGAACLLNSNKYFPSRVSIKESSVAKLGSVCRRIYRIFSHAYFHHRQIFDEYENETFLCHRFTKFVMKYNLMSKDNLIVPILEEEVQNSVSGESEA
UniProt Q9HC36: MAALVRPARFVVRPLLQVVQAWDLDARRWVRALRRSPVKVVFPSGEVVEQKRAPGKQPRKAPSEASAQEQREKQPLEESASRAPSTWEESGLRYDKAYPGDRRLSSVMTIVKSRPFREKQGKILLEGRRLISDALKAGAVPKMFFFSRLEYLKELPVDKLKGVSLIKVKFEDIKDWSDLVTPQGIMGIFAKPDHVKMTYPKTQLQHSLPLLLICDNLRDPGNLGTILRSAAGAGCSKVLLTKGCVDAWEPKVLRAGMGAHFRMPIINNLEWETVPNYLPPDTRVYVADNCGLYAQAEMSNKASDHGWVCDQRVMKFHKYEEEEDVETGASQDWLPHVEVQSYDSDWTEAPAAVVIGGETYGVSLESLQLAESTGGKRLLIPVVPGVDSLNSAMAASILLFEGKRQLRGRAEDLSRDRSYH
UniProt Q5TGZ0: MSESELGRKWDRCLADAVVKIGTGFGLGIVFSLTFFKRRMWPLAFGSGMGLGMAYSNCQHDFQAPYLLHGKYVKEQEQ
UniProt Q9UNW1: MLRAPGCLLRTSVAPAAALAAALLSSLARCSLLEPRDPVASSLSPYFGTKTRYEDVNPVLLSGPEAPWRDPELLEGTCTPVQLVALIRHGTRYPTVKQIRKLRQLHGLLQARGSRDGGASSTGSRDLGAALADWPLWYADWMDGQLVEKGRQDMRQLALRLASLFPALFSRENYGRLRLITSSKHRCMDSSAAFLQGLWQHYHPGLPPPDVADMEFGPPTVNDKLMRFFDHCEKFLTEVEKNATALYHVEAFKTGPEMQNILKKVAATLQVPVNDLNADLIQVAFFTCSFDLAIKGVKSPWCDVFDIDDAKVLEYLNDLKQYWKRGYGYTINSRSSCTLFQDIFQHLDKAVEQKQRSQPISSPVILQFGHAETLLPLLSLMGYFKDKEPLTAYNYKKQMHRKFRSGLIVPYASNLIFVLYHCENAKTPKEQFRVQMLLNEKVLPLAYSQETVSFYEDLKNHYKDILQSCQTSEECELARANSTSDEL
UniProt Q9UQ53: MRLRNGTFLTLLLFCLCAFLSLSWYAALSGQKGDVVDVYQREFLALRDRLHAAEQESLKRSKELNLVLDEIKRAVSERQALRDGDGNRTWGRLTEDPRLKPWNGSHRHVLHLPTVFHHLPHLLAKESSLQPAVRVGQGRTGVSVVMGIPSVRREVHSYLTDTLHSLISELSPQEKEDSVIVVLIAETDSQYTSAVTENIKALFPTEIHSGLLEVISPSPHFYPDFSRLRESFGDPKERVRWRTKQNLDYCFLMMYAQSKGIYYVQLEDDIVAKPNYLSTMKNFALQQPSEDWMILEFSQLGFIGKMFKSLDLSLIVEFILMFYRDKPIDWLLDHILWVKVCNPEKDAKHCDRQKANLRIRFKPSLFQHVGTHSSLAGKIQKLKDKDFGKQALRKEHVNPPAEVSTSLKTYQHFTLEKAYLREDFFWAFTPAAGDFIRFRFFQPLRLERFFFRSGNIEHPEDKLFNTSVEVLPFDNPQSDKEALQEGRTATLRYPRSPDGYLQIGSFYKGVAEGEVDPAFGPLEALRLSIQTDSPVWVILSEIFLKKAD
UniProt Q8N108: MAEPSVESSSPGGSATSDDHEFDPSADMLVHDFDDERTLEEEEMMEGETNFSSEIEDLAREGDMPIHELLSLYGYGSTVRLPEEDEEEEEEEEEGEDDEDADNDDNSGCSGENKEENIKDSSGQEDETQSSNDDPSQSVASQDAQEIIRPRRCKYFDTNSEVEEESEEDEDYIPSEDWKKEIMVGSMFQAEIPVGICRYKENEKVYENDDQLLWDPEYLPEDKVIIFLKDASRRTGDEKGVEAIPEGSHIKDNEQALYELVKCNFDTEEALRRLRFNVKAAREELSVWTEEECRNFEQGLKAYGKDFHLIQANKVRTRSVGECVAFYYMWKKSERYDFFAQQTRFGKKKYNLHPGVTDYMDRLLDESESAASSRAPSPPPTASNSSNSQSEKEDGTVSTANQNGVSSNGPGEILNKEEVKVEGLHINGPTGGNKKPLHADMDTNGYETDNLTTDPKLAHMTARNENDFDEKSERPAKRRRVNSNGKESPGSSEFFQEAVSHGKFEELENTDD
UniProt Q09328: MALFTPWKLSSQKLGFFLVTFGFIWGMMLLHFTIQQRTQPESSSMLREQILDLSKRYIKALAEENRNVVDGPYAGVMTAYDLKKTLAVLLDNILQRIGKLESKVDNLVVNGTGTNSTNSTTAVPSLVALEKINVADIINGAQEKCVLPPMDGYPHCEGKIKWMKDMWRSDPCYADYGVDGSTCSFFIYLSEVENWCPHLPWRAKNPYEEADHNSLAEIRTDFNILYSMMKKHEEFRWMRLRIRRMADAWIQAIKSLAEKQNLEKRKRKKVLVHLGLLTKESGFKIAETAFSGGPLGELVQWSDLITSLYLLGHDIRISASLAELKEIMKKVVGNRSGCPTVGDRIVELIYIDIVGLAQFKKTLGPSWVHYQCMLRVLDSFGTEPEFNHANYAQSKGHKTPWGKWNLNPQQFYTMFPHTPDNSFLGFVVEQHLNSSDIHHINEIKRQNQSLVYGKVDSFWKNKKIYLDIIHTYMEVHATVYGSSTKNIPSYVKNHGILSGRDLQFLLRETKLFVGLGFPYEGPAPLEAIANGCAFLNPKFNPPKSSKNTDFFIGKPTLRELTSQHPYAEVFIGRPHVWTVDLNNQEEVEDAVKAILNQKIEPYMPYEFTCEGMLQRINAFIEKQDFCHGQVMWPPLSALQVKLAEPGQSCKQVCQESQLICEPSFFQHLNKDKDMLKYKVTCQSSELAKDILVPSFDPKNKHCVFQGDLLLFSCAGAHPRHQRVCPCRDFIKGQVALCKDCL
UniProt Q15014, whole entry, looked up: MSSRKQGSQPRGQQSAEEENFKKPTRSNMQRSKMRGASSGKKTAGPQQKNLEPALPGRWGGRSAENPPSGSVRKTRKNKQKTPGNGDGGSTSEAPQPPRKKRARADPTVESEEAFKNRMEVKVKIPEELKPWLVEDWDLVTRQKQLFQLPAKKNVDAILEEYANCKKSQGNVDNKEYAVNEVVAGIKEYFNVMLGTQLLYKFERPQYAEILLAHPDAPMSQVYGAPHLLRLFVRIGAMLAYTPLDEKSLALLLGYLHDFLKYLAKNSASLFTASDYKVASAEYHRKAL
UniProt Q9Y6X9: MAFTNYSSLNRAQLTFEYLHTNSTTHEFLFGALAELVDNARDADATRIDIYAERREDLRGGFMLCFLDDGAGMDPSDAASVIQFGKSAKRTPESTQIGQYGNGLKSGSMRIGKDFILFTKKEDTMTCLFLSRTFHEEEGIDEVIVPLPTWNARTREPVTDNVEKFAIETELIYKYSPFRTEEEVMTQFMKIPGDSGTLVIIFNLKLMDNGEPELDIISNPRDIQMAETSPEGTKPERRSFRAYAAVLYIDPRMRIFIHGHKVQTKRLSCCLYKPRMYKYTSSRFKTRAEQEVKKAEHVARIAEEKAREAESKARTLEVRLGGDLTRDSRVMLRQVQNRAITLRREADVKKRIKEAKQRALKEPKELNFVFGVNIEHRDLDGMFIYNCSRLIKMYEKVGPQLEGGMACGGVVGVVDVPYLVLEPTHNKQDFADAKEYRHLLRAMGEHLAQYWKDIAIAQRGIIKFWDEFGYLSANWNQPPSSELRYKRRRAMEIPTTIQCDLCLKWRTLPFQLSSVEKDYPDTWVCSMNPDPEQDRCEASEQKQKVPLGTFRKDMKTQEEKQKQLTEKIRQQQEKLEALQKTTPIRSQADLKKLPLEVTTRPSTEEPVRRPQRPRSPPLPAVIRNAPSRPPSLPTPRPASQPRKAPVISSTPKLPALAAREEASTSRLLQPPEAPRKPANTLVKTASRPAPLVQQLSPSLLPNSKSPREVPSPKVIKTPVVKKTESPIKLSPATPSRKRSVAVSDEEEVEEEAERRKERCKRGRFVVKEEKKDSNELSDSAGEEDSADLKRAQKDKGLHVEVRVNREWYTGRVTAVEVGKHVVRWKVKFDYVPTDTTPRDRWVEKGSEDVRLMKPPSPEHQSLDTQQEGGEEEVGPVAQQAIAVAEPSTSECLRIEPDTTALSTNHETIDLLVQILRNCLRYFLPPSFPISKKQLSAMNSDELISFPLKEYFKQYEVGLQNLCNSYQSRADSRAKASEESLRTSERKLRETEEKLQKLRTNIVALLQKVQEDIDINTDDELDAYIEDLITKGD
UniProt Q9NYP9: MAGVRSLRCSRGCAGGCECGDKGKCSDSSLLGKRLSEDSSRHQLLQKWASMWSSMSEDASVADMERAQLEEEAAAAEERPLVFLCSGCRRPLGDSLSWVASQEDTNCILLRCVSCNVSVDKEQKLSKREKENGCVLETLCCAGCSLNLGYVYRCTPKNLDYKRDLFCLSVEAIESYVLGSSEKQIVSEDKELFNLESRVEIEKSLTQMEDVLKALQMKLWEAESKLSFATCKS
UniProt Q8TDZ2: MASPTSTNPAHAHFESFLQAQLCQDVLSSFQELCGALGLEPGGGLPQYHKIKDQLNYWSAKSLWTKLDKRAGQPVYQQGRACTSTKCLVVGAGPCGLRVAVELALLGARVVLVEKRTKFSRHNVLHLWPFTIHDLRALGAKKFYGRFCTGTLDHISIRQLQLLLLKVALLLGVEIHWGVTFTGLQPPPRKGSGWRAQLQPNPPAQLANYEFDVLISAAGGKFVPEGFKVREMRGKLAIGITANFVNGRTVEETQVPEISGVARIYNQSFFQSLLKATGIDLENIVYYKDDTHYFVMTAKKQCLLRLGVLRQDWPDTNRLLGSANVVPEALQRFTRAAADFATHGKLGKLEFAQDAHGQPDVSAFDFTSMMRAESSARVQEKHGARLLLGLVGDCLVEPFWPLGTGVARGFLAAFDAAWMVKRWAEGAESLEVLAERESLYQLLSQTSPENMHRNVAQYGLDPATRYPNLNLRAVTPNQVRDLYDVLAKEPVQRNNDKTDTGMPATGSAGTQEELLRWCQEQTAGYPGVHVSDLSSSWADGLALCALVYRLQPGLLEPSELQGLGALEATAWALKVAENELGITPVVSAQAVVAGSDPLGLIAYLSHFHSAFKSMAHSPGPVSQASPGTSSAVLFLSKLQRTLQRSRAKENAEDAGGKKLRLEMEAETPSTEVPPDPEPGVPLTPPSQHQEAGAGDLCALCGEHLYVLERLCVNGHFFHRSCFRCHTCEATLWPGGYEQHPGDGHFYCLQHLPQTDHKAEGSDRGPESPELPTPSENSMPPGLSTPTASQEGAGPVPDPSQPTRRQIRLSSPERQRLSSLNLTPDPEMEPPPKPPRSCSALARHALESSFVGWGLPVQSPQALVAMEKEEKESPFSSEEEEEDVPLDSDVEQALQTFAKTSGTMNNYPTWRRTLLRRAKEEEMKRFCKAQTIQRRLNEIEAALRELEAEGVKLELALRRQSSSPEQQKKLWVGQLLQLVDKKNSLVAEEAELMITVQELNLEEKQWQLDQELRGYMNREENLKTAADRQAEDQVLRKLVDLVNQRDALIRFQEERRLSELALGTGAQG
UniProt Q13015: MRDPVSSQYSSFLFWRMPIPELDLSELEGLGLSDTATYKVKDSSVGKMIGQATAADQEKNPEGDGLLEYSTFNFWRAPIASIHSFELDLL
UniProt Q8IYU8: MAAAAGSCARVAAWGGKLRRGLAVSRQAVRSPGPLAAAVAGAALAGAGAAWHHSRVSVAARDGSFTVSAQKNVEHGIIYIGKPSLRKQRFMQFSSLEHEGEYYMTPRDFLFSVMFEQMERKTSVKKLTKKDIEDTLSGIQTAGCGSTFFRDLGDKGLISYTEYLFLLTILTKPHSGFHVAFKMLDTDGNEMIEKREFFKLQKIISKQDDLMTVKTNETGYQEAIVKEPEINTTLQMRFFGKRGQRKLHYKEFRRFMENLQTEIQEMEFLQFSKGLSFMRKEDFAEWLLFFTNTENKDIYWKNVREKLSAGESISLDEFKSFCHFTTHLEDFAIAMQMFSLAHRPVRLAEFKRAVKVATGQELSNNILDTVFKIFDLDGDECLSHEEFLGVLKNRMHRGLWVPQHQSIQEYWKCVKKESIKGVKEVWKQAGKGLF
UniProt P51948: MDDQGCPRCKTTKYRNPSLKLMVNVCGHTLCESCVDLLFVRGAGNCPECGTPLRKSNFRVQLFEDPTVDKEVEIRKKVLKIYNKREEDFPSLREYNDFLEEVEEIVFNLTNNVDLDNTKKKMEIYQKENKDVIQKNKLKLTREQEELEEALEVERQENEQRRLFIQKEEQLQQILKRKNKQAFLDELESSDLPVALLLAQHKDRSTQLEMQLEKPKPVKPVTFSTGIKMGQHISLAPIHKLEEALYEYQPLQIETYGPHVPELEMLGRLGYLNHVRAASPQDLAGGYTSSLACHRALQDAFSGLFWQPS
UniProt Q9Y605: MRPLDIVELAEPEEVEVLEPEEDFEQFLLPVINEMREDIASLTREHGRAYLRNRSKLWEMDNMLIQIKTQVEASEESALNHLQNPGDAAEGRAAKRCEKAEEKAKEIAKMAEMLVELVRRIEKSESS

Experiments:
Test in all cases: log2 fold change, soluble protein after heating vs DMSO (PISA); higher = thermal stabilisation; K562 lysate, 10 uM; active = over 0.2 and 3.5 SD of the protein, either way, in both replicates (recomputed)
[1] = compound: Cc1cn(-c2cc(NC(=O)c3ccc(C)c(Nc4nccc(-c5cccnc5)n4)c3)cc(C(F)(F)F)c2)cn1 [nilotinib]
Outline: (§1)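 The values are log-two fold changes in thermal stability compared with solvent controls and come from duplicates. They were obtained by TMTpro 16plex LC-MS/MS, with channel sums equalised, on the supernatant after 21,000xg for 90 min. That supernatant came from crude K562 extract at 1 mg/mL protein treated with 10 μM compound for 30 min, heated for 3 min across 48°C-58°C, pooled and brought to 0.5% NP-40 at 4°C.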

[2] = compound: Cc1nc(Nc2n[nH]c3c2CN(C(=O)N[C@H](CN(C)C)c2ccccc2)C3(C)C)c2sccc2n1
Outline: as §1

[3] = compound: Cc1nc(Nc2ncc(C(=O)Nc3c(C)cccc3Cl)s2)cc(N2CCN(CCO)CC2)n1 [dasatinib]
Outline: as §1

[4] = compound: Cc1ncc(-c2ccnc(Nc3ccc(S(C)(=O)=O)cc3)n2)n1C(C)C
Outline: as §1

[5] = compound: Cn1cc(-c2ccc3c(c2)CCN3C(=O)Cc2cccc(C(F)(F)F)c2)c2c(N)ncnc21
Outline: as §1

[6] = compound: Cn1cc(CNCC2CCN(c3ncc(C(=O)NO)cn3)CC2)c2ccccc21 [quisinostat]
Outline: as §1

[7] = compound: Cn1cncc1[C@@](N)(c1ccc(Cl)cc1)c1ccc2c(c1)c(-c1cccc(Cl)c1)cc(=O)n2C [tipifarnib]
Outline: as §1

[8] = compound: NC(=O)Nc1cc(-c2cccc(F)c2)sc1C(=O)N[C@H]1CCCNC1
Outline: as §1

[9] = compound: NC(=O)c1cnc(N[C@@H]2CCCC[C@@H]2N)nc1Nc1cccc(-n2nccn2)c1
Outline: as §1

[10] = compound: NC1(c2ccc(-c3nc4ccn5c(=O)[nH]nc5c4cc3-c3ccccc3)cc2)CCC1
Outline: as §1

Measured: log2 fold change

MRPL13 (UniProt Q9BYD1)
inactive: [1] 0.053 | [2] -0.027 | [3] -0.005 | [4] -0.016 | [5] 0.038 | [6] -0.025 | [7] -0.008 | [8] -0.012 | [9] 0.027 | [10] 0.051

MRPL15 (UniProt Q9P015)
inactive: [1] 0.011 | [2] -0.034 | [3] 0.004 | [4] -0.028 | [5] -0.008 | [6] -0.022 | [7] 0.012 | [8] 0.005 | [9] 0.012 | [10] -0.181

MOB4 (UniProt Q9Y3A3)
inactive: [1] -0.01 | [2] 0.008 | [3] 0.035 | [4] 0.079 | [5] -0.024 | [6] -0.04 | [7] 0.015 | [8] 0.017 | [9] -0.061 | [10] 0.006

MRM3 (UniProt Q9HC36)
inactive: [1] -0.058 | [2] -0.021 | [3] 0.003 | [4] -0.04 | [5] 0.011 | [6] 0.016 | [7] 0.054 | [8] -0.034 | [9] 0.029 | [10] -0.025

MICOS10 (UniProt Q5TGZ0)
inactive: [1] 0.028 | [2] -0.062 | [3] -0.138 | [4] -0.034 | [5] 0.064 | [6] 0 | [7] -0.076 | [8] 0.049 | [9] -0.062 | [10] -0.008

MOGS (UniProt Q13724)
inactive: [1] -0.03 | [2] -0.002 | [3] 0.022 | [4] 0.005 | [5] 0.025 | [6] 0.084 | [7] -0.023 | [8] 0.004 | [9] 0 | [10] -0.002

MINPP1 (UniProt Q9UNW1)
inactive: [1] 0.027 | [2] -0.016 | [3] 0.079 | [4] 0.002 | [5] 0.026 | [6] 0.039 | [7] 0.009 | [8] -0.021 | [9] -0.005 | [10] 0.002

MRNIP (UniProt Q6NTE8)
inactive: [1] 0.126 | [2] -0.048 | [3] 0.075 | [4] -0.058 | [5] 0.096 | [6] -0.117 | [7] -0.096 | [8] 0.056 | [9] 0.034 | [10] 0.057

MGAT4B isoform 3 (UniProt Q9UQ53)
inactive: [1] 0.091 | [2] -0.041 | [3] -0.009 | [4] -0.063 | [5] 0.142 | [6] 0.194 | [7] -0.037 | [8] -0.036 | [9] 0.058 | [10] 0.058

MRPL10 isoform 2 (UniProt Q7Z7H8)
inactive: [1] 0.009 | [2] 0.016 | [3] -0.019 | [4] 0.025 | [5] 0.054 | [6] -0.22 | [7] -0.017 | [8] 0.015 | [9] 0.024 | [10] -0.011

2 entries drawn at random from the list so far:
MRPL10 isoform 2 (UniProt Q7Z7H8)
inactive: [1] 0.009 | [2] 0.016 | [3] -0.019 | [4] 0.025 | [5] 0.054 | [6] -0.22 | [7] -0.017 | [8] 0.015 | [9] 0.024 | [10] -0.011

MOGS (UniProt Q13724)
inactive: [1] -0.03 | [2] -0.002 | [3] 0.022 | [4] 0.005 | [5] 0.025 | [6] 0.084 | [7] -0.023 | [8] 0.004 | [9] 0 | [10] -0.002

Next results follow:

MITD1 (UniProt Q8WV92)
inactive: [1] -0.022 | [2] 0.089 | [3] 0.011 | [4] -0.09 | [5] 0.027 | [6] 0.027 | [7] 0.022 | [8] 0.03 | [9] 0.07 | [10] -0.047

MOV10 (UniProt Q9HCE1)
inactive: [1] -0.027 | [2] -0.006 | [3] 0.007 | [4] -0.022 | [5] 0.005 | [6] -0.01 | [7] 0.029 | [8] 0.018 | [9] -0.015 | [10] -0.007

MIER1 isoform 12 (UniProt Q8N108)
inactive: [1] -0.044 | [2] 0.02 | [3] 0.044 | [4] 0.003 | [5] -0.01 | [6] -0.102 | [7] -0.02 | [8] 0 | [9] 0.019 | [10] -0.003

MGAT5 (UniProt Q09328)
inactive: [1] 0.035 | [2] 0.01 | [3] -0.005 | [4] 0.012 | [5] 0.002 | [6] 0.051 | [7] -0.02 | [8] -0.019 | [9] 0.022 | [10] -0.003

MORF4L2 (UniProt Q15014)
inactive: [1] 0 | [2] -0.035 | [3] -0.001 | [4] -0.012 | [5] -0.051 | [6] 0.005 | [7] -0.015 | [8] 0.002 | [9] -0.006 | [10] -0.002

MORC2 (UniProt Q9Y6X9)
inactive: [1] -0.012 | [2] -0.02 | [3] -0.046 | [4] 0.006 | [5] 0.051 | [6] -0.05 | [7] 0.024 | [8] 0.049 | [9] 0.028 | [10] -0.001

MIS18A (UniProt Q9NYP9)
inactive: [1] 0.001 | [2] 0.044 | [3] -0.017 | [4] -0.017 | [5] 0.042 | [6] 0.007 | [7] 0.004 | [8] -0.016 | [9] -0.013 | [10] 0.048

MGST3 (UniProt O14880)
inactive: [1] 0.024 | [2] 0.016 | [3] 0.029 | [4] -0.019 | [5] -0.062 | [6] 0.016 | [7] -0.014 | [8] 0.009 | [9] -0.013 | [10] -0.031

MRPL14 (UniProt Q6P1L8)
inactive: [1] -0.059 | [2] -0.006 | [3] -0.06 | [4] -0.108 | [5] 0.032 | [6] -0.009 | [7] -0.009 | [8] -0.019 | [9] 0.043 | [10] 0.138

MOCS1 isoform 8 (UniProt Q9NZB8)
inactive: [1] 0.188 | [2] -0.03 | [3] 0.074 | [4] 0.227 | [5] -0.013 | [6] -0.082 | [7] -0.231 | [8] 0.093 | [9] 0.021 | [10] -0.033

MICAL1 isoform 4 (UniProt Q8TDZ2)
inactive: [1] 0.042 | [2] 0.057 | [3] -0.041 | [4] -0.051 | [5] 0.046 | [6] -0.035 | [7] -0.141 | [8] 0.06 | [9] 0.014 | [10] -0.016

MLLT11 (UniProt Q13015)
inactive: [1] 0.068 | [2] 0.03 | [3] -0.015 | [4] -0.051 | [5] -0.06 | [6] -0.029 | [7] -0.204 | [8] 0.107 | [9] 0.011 | [10] 0.055

MMAB (UniProt Q96EY8)
inactive: [1] 0.026 | [2] 0.01 | [3] -0.002 | [4] -0.002 | [5] -0.018 | [6] 0.061 | [7] 0.017 | [8] 0.023 | [9] 0.015 | [10] 0.043

MICU2 (UniProt Q8IYU8)
inactive: [1] -0.052 | [2] 0.02 | [3] -0.026 | [4] 0.048 | [5] -0.015 | [6] -0.03 | [7] -0.043 | [8] 0.07 | [9] 0.105 | [10] -0.009

MNAT1 (UniProt P51948)
inactive: [1] -0.033 | [2] 0.019 | [3] -0.035 | [4] -0.02 | [5] -0.008 | [6] -0.01 | [7] 0.012 | [8] 0.005 | [9] 0.005 | [10] -0.014

MRPL11 (UniProt Q9Y3B7)
inactive: [1] 0.011 | [2] -0.017 | [3] -0.064 | [4] 0.012 | [5] 0.017 | [6] 0.004 | [7] -0.048 | [8] 0.048 | [9] -0.033 | [10] -0.06

MRFAP1 (UniProt Q9Y605)
inactive: [1] 0.009 | [2] -0.027 | [3] 0.046 | [4] -0.139 | [5] 0.006 | [6] 0.061 | [7] -0.053 | [8] -0.105 | [9] 0.013 | [10] -0.052

MRPL16 (UniProt Q9NX20)
inactive: [1] -0.033 | [2] -0.02 | [3] 0.042 | [4] 0.032 | [5] 0.072 | [6] -0.101 | [7] -0.044 | [8] 0.048 | [9] -0.049 | [10] 0.031

MGME1 (UniProt Q9BQP7)
inactive: [1] 0.013 | [2] 0.028 | [3] 0.003 | [4] 0.008 | [5] -0.034 | [6] 0.005 | [7] 0.025 | [8] 0 | [9] 0.02 | [10] -0.003
